# Results of single-concentration screens

Values are the deposited “Percent Effect”, in %.
How 0% and 100% were set is not recorded. Most values in the screen are low, and negative values occur.
Compounds were drawn at random from those tested, without regard to their results.
Two or more numbers in one place are separate tests of the same structure; such repeats can differ widely.
A dash means the value is not listed here; it may have been measured.

T. brucei: 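Whole-parasite assay of Trypanosoma brucei over 72 hours; the read-out is not stated. Concentration: 30 µM. Direction is inferred from retests: higher values go with stronger inhibition. Values scatter widely below zero; nearly all retest evidence comes from the higher of the two concentrations used. About 64,000 compounds were tested under these conditions; 1.5% (about 940) showed 50% or more at least once.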
Leishmania in macrophages: 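Cell assay of Leishmania donovani living inside macrophages; the read-out is not stated. Compounds at 30 µM. Higher reads as stronger inhibition (inferred: compounds with an IC50 in retests scored well above the rest). Of about 69,000 compounds tested this way, about 1,000 (1.5%) reached 50% or more in at least one test.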

compound | T. brucei | Leishmania in macrophages
O=C(O)C(F)(F)F.[H][C@]12CCC[C@@]1(COCc1cccnc1)CN(C(=O)c1ocnc1C)C2 | 18.22 | 36.87
COCC1COCCC12CCN(S(=O)(=O)c1ccc(C)cc1)CC2 (stereo not given) | 7.336 | 24.17
O=C(O)C(F)(F)F.[H][C@]12CCN(c3cccc(C)n3)C[C@@]1([H])OCCN(C(=O)c1ccco1)C2 | 13.05 | 18.13
CC(=O)Nc1nc(C(=O)NC(C)c2ccc(F)cc2)cs1 (stereo not given) | -7.845 | 29.86
CC(=O)N1CCc2c(nc(N(C)C)nc2NCCCn2ccnc2C)C1 | -43.33 | 23.03
CCn1cncc1Cn1cccc(C(F)(F)F)c1=O | -19.82 | -9.667
CN(C)C(=O)C1OC2(CCN(C(=O)c3ccco3)CC2)c2ccccc21 (stereo not given) | -7.534 | 20.62
Cn1ccc(CS(=O)(=O)Cc2ccccc2)cc1=O | -30.31 | 19.85
[H][C@@]12CCC(=O)N(CCNC)[C@]1([H])CCN(c1cnc3ccccc3n1)C2 | - | 7.036
CC(C)c1ccc(CS(=O)(=O)CC(=O)NCc2ccccc2F)cc1 | 3.234 | -16.59
O=C(O)C(F)(F)F.c1cnc(N2CCOCC3(CN(Cc4cc[nH]n4)CCO3)C2)nc1 (stereo not given) | - | 2.997
CCc1nccn1-c1nccnc1C1CCN(C(=O)COC)CC1 | -19.16 | 13.43
O=C1CCC2(CCCN(C(=O)Cc3cccs3)C2)N1 (stereo not given) | -19.35 | 14.32
[H][C@@]12CN(C(C)=O)CCO[C@]1([H])CN(S(=O)(=O)c1ccccc1F)C2 | - | 8.421
CCn1ccnc1CN1CCN(CC(O)CN2CCOCC2)CC1 (stereo not given) | - | 27.98
CC[C@@H](CO)NC(=O)c1coc(COc2ccc3sc(C)nc3c2)n1 | -15.64 | 27.54
CC(=O)N1CCC(C)(c2nc(C)no2)CC1 | - | 5.045
O=C(c1cc(-c2cccs2)cs1)N1CCSCC1 | 8.309 | 7.678
O=C(c1ccncc1)N1CCc2ncnc(C3CCOC3)c2CC1 (stereo not given) | -19.53 | 33.23
Fc1cccc(-c2nccnc2C2CCCNC2)c1 (stereo not given) | -21.91 | 25.67
Cc1cc(CN2CCCC2c2c(C)nn(C)c2Cl)no1 (stereo not given) | -27.79 | -2.426
Cn1ccc2c(-c3ccc(NC4CC4)nn3)ccnc21 | -5.559 | 4.664
c1ccc(-c2cnc(CNC3CCCN(c4cccnn4)C3)o2)cc1 (stereo not given) | -15.5 | 21.56
Cc1cccc(C(=O)N2CCN(c3ccccc3F)CC2)n1 | -46.94 | -4.84
Cc1ccoc1C(=O)N1CCCN(Cc2cnn(C)c2)CC1 | - | 14.94
CCN1CCC(NC(=O)CN2CCCC2Cn2nc(C)cc2C)CC1 (stereo not given) | -17.64 | 16.59
CCOCC1c2c(ncn2C(C)C)CCN1C(C)C.O=C(O)C(F)(F)F.O=C(O)C(F)(F)F (stereo not given) | - | 29.32
Cc1ccc(S(=O)(=O)N(C)c2ccsc2C(=O)NCC(C)C)cc1 | 2.822 | -11.91
O=c1cc(Cn2ccnc2)nc2n1CCCN(Cc1ccc(F)cc1)C2 | -36.73 | 12
CN(C)CC1(O)CCN(S(=O)(=O)c2ccc(F)c(F)c2)C1 (stereo not given) | -20.48 | -18.87
O=C(C(O)c1ccccc1Cl)N1CCCN(Cc2cccnc2)CC1 (stereo not given) | 10.52 | -0.6728
[H][C@]12CCN(C(C)=O)C[C@@]1([H])OCCN(C(=O)c1ccco1)C2 | 9.165 | 3.391
[H][C@@]12CS(=O)(=O)C[C@]1([H])N(C(=O)c1ccco1)CCN2S(C)(=O)=O | -10.22 | -8.818
CCc1ccc(NC(=O)c2n[nH]c(-n3cnnc3)n2)cc1 | -12.42 | -23.27
CC(C)CN1CCCC1c1ccc(C(=O)Nc2ccc3[nH]nnc3c2)s1 (stereo not given) | 85.03 | 12.28
O=C(Cc1ccccc1)N1CCC2(CC(=O)N(c3cccc(F)c3)C2)C1 (stereo not given) | 28.59 | 12.19
Cc1oc(-c2ccsc2)nc1CN1CCCC(c2ccnn2C)C1 (stereo not given) | -32.27 | -7.52
O=C(C(CNCc1ccncc1)c1ccccc1)N1CCOCC1 (stereo not given) | -29.74 | 14.06
COc1cccc(CN2CCC3(CCN(C(=O)C4CC=CC4)CC3)C2)c1.O=C(O)C(F)(F)F | 29.83 | 24.22
CC(CN1CCCC1=O)NC(=O)c1ccc(-c2ccco2)[nH]c1=O (stereo not given) | -22.56 | -13.82
NC(=O)Cn1ccc(NC(=O)C2(c3cccc(F)c3)CCC2)n1 | -54.27 | 8.57
Cc1ccccc1C(C)N(C)Cc1nc2c(cnn2C)c(=O)[nH]1 (stereo not given) | - | 33.49
O=C(c1ccncc1)N1CCC2(CC1)CC(Oc1cccnc1)CO2 (stereo not given) | 14.1 | -36.48
Cc1nnc(NC(=O)NCc2ccc(C)n2C)s1 | -17.41 | 38.21
CC(NC(=O)NCCCO)c1ccc2c(c1)NC(=O)CO2 (stereo not given) | - | 9.165
Cc1nn(-c2ccccc2Cl)c(C)c1CCC(=O)NCCS(C)(=O)=O | 9.954 | -9.102
COc1ccc2c(C)c(C(=O)NC3CCCOC3)oc2c1 (stereo not given) | -15.88 | 5.475
Cc1ccc(S(=O)(=O)N2CCn3nc(C)nc3C2)c(Cl)c1 | -43.64 | 2.649
NC(=O)CN1CC2(CCC1=O)CCN(Cc1ccc(Cl)c(F)c1)CC2 | -38.89 | 7.055
CN1CCC(NC(=O)Nc2cnn(-c3ccccc3Cl)c2)CC1 | -7.238 | 19.56
CNC(=O)CN1CCOCC2(C1)CN(Cc1csnn1)CCO2 (stereo not given) | -97.94 | 14.22
CCSCCC(=O)N1CCc2[nH]nc(COc3ccccc3)c2C1 | -48 | -50.48
CCC(C)Oc1ccccc1CN1Cc2ncccc2C1=O (stereo not given) | 14.63 | 6.927
Cc1nc(-c2ccc(CNS(=O)(=O)N(C)C)cc2)ccc1C(N)=O | -0.09361 | 14.78
Cc1cc(C(=O)CN2CCN(c3ncccn3)CC2)c(C)n1C(C)C | -19.88 | 1.552
COc1ccc(CNc2nncs2)cc1F | -19.73 | 2.465
CCNS(=O)(=O)c1ccc(C)c(C(=O)N(C)Cc2ccco2)c1 | -10.15 | 24.61
Cc1cc(C)c2cc(CNC3CCCCC3)c3nn(C)c(=O)n3c2c1 | 100.6 | -0.836 & 14.31
CC(C)c1nn(C)cc1CNCc1ccnc(N(C)C)c1.Cl | -20 | 21.22
Cc1ccc(N2CCCC(N(C)Cc3ccccn3)C2)nn1 (stereo not given) | -20.84 | 18.92
CN(CCOc1ccc(C#N)cc1)CC1CC1 | -38.32 | -0.1472
CC[C@H](CO)NC(=O)c1coc(COc2cccc(F)c2F)n1 | -14.43 | -16.4
[H][C@@]12CC[C@H](Oc3ccccc3Cl)[C@]1([H])CN(C(=O)CNC(C)=O)C2 | 5.374 | 14.01 & -26.15
Cc1cc(=O)c(C(=O)Nc2cccc(CCN3CCCC3)c2)c[nH]1 | -22.49 | 12.01
[H][C@@]12CS(=O)(=O)C[C@]1([H])N(C(=O)CCn1cc(Cl)cn1)CCN2C(=O)CC | 35.1 | 24.68
CNC(=O)c1ccc(-c2ccccc2)n1C | 8.926 | 18.62
Cc1cc2c(=O)n3c(nc2s1)CCN(Cc1cnc(C(C)C)nc1)CC3 | -19.62 | -26.9
CN(Cc1ccncc1)C(=O)NCc1nnc2n1CCCCC2 | -13.44 | -1.906
O=C(O)c1ccccc1-c1ccc(CN2CC(c3ccncn3)C2)o1 | -4.766 | -3.558
[H][C@@]12CNC(=O)N1CCN(Cc1cccc(OC)n1)C2 | -1.457 | 17.37
O=C(Nc1c(F)cccc1F)N1CC(c2nc(C3CC3)no2)C1 | 11.81 | 21.27 & 9.397
CN(Cc1nc(-c2ccco2)no1)C1CCCN(c2cccnn2)C1 (stereo not given) | 1.147 | 14.74
CN(CCc1ccccn1)C(=O)C(O)c1cc(Cl)cc(Cl)c1 (stereo not given) | -18.71 | 8.043
[H][C@@]12OCCN(CCN3CCCCC3)[C@@]1([H])CC[C@@H]2OCc1ccccn1 | 3.27 | 19.33
C[C@@H](NC(=O)c1ccc(Cl)cc1)c1onc(-c2cccnc2)c1C(=O)O.Cl | -12.72 | 16.01
CNC(=O)C1(C)CN(S(=O)(=O)c2cccc(OC)c2)CCO1 (stereo not given) | -5.39 | 4.721
Cc1nc(C(=O)N2CCCCC2)nn1-c1ccccc1Cl | 17.3 | 11.49
CS(=O)(=O)N[C@@H]1CCO[C@]2(CCN(C(=O)c3cscn3)C2)C1 | -82.19 | -8.267

Some entries from above, unchanged:

{"compound": "O=C(c1ccncc1)N1CCC2(CC1)CC(Oc1cccnc1)CO2", "stereo": "stereo not given", "T. brucei": 14.1, "Leishmania in macrophages": -36.48}
{"compound": "Cc1oc(-c2ccsc2)nc1CN1CCCC(c2ccnn2C)C1", "stereo": "stereo not given", "T. brucei": -32.27, "Leishmania in macrophages": -7.52}
{"compound": "[H][C@@]12CNC(=O)N1CCN(Cc1cccc(OC)n1)C2", "T. brucei": -1.457, "Leishmania in macrophages": 17.37}
{"compound": "Cc1ccc(S(=O)(=O)N2CCn3nc(C)nc3C2)c(Cl)c1", "T. brucei": -43.64, "Leishmania in macrophages": 2.649}
{"compound": "Cc1cc(C)c2cc(CNC3CCCCC3)c3nn(C)c(=O)n3c2c1", "T. brucei": 100.6, "Leishmania in macrophages": "-0.836 & 14.31"}
{"compound": "Cc1cc(CN2CCCC2c2c(C)nn(C)c2Cl)no1", "stereo": "stereo not given", "T. brucei": -27.79, "Leishmania in macrophages": -2.426}
{"compound": "Cc1cc2c(=O)n3c(nc2s1)CCN(Cc1cnc(C(C)C)nc1)CC3", "T. brucei": -19.62, "Leishmania in macrophages": -26.9}
{"compound": "CC[C@H](CO)NC(=O)c1coc(COc2cccc(F)c2F)n1", "T. brucei": -14.43, "Leishmania in macrophages": -16.4}

Data taken from ChEMBL document CHEMBL3988442, “University of Dundee, Small-Polar-MMV Screening Library” (2021).